# Measured values taken from the supplement of paper PMC10849652.
# Sequences of proteins named here, by UniProt entry; tags and fusion partners are left off. A change or cut given only in a name is not applied to a line headed by its entry.
# UniProt Q7Z6L1: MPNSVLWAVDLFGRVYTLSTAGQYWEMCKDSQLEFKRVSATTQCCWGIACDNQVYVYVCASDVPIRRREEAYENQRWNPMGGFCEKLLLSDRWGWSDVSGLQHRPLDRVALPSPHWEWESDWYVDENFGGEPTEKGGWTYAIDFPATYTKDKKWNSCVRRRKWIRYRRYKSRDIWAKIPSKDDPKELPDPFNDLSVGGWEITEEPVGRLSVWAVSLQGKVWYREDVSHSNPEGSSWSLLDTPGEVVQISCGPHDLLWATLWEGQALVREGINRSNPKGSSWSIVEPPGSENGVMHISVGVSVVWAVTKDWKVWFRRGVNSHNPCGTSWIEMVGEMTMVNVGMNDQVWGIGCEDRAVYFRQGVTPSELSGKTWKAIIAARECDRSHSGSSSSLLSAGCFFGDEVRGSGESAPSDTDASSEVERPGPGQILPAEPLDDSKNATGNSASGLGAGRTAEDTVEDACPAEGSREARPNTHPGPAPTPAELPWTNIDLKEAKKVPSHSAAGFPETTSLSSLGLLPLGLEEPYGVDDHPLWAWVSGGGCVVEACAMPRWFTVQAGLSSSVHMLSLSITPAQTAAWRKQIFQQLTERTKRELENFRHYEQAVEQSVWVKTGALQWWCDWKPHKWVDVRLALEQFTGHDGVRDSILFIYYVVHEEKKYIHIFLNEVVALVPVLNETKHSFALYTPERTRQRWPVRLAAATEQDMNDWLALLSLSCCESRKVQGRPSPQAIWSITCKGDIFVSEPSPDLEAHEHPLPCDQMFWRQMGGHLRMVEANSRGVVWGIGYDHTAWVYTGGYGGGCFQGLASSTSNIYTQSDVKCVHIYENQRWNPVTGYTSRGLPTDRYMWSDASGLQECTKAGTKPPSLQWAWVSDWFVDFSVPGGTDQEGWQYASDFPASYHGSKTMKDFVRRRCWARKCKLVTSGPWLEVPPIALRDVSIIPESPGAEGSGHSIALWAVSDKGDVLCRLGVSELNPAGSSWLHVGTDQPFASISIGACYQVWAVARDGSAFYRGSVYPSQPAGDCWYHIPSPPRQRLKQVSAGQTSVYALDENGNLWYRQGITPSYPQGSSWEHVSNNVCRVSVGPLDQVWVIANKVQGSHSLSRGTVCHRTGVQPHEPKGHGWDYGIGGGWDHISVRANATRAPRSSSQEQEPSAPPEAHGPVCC
# UniProt Q9UGU0: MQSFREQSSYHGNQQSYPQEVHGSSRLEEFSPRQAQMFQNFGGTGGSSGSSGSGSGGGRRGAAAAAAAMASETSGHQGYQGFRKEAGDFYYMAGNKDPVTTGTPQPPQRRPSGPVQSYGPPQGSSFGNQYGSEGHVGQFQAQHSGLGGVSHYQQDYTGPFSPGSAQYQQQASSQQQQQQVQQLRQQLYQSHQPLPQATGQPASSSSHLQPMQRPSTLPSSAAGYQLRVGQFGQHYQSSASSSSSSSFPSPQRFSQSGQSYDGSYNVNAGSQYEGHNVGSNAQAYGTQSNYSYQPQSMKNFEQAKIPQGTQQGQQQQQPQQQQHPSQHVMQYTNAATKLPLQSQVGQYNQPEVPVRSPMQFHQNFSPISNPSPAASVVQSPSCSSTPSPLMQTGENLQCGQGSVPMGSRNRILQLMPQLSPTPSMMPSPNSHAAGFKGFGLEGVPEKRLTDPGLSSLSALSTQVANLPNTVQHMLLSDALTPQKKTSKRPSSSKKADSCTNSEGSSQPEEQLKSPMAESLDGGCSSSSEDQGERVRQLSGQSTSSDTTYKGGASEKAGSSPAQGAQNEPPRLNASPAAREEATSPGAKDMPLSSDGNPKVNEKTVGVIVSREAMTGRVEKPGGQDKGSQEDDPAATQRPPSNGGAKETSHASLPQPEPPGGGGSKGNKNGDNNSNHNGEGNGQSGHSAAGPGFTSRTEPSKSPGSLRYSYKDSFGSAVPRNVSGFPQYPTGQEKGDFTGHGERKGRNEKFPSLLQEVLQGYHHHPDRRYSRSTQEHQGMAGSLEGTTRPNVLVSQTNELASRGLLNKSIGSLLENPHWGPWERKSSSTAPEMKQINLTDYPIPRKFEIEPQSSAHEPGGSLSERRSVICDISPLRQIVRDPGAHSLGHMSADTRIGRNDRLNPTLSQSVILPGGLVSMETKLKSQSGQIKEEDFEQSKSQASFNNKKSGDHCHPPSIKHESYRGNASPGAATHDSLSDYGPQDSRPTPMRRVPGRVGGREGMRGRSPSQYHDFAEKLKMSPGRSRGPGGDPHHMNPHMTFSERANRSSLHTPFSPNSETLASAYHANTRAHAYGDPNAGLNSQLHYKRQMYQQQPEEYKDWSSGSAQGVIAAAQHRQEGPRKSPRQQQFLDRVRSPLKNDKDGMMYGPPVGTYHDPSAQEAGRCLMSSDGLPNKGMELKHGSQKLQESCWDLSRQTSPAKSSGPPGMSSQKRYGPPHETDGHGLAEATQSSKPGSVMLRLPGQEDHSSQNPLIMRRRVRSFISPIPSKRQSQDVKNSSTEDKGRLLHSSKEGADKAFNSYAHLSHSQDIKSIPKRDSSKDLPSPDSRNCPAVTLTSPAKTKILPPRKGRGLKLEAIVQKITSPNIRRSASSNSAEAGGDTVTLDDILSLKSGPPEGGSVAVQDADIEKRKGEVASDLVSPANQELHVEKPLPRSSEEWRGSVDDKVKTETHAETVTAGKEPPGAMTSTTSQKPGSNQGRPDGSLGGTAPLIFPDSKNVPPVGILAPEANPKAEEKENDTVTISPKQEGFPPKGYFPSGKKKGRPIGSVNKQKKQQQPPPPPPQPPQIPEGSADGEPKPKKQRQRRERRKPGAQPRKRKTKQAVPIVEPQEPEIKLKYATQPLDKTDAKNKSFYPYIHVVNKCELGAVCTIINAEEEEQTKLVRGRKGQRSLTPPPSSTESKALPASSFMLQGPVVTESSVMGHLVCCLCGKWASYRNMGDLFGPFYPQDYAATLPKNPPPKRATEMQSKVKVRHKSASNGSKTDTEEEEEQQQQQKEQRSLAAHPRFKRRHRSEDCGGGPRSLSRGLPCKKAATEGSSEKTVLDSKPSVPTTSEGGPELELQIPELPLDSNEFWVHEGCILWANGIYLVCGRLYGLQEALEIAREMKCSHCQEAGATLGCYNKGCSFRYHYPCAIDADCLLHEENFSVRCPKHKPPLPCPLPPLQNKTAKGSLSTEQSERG
# UniProt P20061: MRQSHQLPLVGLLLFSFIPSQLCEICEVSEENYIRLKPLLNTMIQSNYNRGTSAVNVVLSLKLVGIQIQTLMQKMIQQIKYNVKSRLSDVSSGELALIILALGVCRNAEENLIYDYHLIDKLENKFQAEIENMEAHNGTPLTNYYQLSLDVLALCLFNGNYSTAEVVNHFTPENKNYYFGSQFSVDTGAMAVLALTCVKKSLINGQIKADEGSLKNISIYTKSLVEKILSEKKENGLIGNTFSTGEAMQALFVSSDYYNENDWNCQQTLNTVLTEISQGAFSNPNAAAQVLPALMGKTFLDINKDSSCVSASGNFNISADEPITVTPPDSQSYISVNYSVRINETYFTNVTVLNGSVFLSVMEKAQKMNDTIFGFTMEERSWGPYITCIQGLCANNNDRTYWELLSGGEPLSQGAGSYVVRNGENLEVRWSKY
# UniProt Q9BXI6: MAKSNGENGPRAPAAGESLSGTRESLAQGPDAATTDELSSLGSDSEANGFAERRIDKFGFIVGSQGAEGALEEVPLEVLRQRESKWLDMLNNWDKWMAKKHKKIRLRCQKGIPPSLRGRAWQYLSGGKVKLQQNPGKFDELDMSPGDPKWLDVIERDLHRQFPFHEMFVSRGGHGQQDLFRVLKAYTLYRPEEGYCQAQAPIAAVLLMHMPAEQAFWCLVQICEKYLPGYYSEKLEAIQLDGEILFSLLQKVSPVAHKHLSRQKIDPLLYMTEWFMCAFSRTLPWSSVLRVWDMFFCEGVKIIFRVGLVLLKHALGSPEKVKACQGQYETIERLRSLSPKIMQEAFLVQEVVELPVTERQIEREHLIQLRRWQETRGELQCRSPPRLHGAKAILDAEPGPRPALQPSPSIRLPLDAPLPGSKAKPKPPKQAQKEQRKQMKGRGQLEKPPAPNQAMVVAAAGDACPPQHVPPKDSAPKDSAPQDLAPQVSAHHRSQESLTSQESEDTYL
# UniProt Q8TEA7: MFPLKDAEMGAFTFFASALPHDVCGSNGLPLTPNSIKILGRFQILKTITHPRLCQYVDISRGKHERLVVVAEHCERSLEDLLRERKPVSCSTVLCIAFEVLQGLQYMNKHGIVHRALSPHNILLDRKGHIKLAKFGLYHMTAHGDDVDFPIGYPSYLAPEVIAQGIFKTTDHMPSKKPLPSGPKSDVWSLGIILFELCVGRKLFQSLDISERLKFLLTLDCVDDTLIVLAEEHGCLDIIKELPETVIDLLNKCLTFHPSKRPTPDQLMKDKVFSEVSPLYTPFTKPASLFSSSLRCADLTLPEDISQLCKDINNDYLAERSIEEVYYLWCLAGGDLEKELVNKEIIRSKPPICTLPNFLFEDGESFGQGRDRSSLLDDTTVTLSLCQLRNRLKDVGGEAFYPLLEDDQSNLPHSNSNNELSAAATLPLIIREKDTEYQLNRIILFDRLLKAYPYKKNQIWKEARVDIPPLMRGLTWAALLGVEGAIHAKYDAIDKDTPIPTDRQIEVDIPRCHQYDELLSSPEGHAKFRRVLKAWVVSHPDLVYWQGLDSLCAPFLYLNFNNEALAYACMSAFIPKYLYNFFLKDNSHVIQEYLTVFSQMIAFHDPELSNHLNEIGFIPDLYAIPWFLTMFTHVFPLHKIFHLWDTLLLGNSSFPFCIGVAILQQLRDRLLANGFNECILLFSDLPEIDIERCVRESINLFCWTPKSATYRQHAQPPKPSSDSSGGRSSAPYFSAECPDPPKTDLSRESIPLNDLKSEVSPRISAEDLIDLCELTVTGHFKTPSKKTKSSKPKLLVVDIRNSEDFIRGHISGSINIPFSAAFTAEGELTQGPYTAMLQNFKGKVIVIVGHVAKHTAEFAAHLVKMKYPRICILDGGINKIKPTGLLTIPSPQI
# UniProt P20226, whole entry, looked up: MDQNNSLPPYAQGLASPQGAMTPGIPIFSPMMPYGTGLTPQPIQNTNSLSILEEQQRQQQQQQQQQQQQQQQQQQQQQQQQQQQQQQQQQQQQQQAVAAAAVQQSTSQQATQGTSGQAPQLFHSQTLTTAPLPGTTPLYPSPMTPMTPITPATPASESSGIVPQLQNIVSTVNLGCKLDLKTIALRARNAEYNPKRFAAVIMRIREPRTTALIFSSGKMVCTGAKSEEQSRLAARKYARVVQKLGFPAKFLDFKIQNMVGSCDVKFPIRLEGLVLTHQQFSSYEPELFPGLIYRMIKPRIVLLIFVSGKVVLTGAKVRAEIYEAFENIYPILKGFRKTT
# UniProt Q3MII6: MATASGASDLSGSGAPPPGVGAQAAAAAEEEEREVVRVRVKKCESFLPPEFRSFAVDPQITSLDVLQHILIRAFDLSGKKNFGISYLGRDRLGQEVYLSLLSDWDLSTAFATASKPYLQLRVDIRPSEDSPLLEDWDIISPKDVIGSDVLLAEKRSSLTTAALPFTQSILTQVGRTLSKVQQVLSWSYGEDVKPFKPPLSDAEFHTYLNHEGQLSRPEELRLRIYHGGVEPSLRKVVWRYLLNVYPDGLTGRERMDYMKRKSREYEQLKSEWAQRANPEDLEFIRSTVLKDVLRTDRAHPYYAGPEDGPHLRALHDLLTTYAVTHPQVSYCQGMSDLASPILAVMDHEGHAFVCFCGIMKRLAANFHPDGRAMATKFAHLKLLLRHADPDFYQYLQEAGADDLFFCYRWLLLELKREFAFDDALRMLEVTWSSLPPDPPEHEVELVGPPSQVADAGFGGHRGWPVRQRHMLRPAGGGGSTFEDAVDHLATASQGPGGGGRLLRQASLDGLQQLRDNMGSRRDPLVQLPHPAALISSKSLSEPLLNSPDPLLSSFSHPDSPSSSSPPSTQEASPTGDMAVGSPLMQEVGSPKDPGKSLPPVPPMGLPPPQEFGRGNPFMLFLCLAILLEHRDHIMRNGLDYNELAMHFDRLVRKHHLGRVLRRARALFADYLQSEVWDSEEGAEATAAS
# UniProt Q9UHQ7: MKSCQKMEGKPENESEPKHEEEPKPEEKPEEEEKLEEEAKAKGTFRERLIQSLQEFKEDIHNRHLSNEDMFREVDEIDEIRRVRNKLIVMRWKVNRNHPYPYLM
# UniProt Q9Y4I5: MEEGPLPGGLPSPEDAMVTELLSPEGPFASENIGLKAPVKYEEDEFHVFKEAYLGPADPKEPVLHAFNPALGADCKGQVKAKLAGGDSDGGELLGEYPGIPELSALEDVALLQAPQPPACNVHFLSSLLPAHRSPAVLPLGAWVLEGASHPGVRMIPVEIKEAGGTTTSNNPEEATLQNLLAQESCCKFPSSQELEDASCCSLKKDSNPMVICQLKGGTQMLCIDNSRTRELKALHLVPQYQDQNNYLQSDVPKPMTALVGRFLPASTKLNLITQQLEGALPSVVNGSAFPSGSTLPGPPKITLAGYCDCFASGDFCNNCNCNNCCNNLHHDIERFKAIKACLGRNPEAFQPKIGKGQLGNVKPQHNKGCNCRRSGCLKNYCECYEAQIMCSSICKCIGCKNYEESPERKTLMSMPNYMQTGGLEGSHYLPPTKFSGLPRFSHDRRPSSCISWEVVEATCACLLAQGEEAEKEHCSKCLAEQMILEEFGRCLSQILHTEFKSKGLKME
# Some of the results follow.
# Compound: C1=CC=C(C=C1)[C@H](COC2=CC3=C(C=C2)NC(=O)N3)NC(=O)C4=CC=CN(C4=O)CC5=CC(=C(C=C5)F)F
# Assay: log2 fold change, soluble protein after heating vs DMSO (PISA); higher = thermal stabilisation; K562 lysate, 10 uM; active = over 0.2 and 3.5 SD of the protein, either way, in both replicates (recomputed)
# In short: (§1)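 To prepare the extract, K562 pellets were dounce-homogenised in PBS pH 7.4 with 1 mM MgCl2, giving crude material at 1 mg/mL protein. This was treated with 10 μM compound for 30 min, then heated in aliquots for 3 min over 48°C-58°C before pooling and addition of NP-40 to 0.5% at 4°C. Centrifugation at 21,000xg for 90 min left soluble protein in the supernatant, which TMTpro 16plex LC-MS/MS quantified with equalised channel sums. Results are log-two fold changes in thermal stability compared with solvent controls, from duplicates.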
row,Target,log2 fold change
1,TENM4 (UniProt Q6N022),inactive: -0.057
2,TBXA2R (UniProt P21731),inactive: -0.089
3,TCOF1 isoform 3 (UniProt Q13428),inactive: -0.075
4,TECPR1 isoform 4 (UniProt Q7Z6L1),inactive: -0.236
5,TCF20 (UniProt Q9UGU0),inactive: 0.022
6,TCN1 (UniProt P20061),inactive: 0.291
7,TBC1D10A (UniProt Q9BXI6),inactive: -0.034
8,TGDS (UniProt O95455),inactive: -0.01
9,TBCK (UniProt Q8TEA7),inactive: 0.057
10,TBP (UniProt P20226),inactive: 0.02

# Compound: CC1=C(SC2=C1C(=N[C@H](C3=NN=C(N32)C)CC(=O)N)C4=CC=C(C=C4)Cl)C
# Assay: as above
# In short: as §1
row,Target,log2 fold change
1,TENM4 (UniProt Q6N022),inactive: 0.174
2,TBXA2R (UniProt P21731),inactive: 0.02
3,TCOF1 isoform 3 (UniProt Q13428),inactive: 0.101
4,TECPR1 isoform 4 (UniProt Q7Z6L1),inactive: -0.057
5,TCF20 (UniProt Q9UGU0),inactive: -0.063
6,TCN1 (UniProt P20061),inactive: -0.279
7,TBC1D10A (UniProt Q9BXI6),inactive: 0.07
8,TGDS (UniProt O95455),inactive: 0.14
9,TBCK (UniProt Q8TEA7),inactive: 0.062
10,TBP (UniProt P20226),inactive: 0.049

# Compound: CC1=C2C(=CC=C1)N=C(N(C2=O)C3=CC=CC=C3C)CN4C=NC5=C(N=CN=C54)N
# Assay: as above
# In short: as §1
row,Target,log2 fold change
1,TCEAL8 (UniProt Q8IYN2),inactive: 0.025
2,TEFM (UniProt Q96QE5),inactive: 0.128
3,TBC1D12 (UniProt O60347),inactive: 0.171
4,TBC1D25 (UniProt Q3MII6),inactive: 0.012
5,TASOR (UniProt Q9UK61),inactive: 0.033
6,TCEAL9 (UniProt Q9UHQ7),inactive: -0.168
7,TCP11L2 (UniProt Q8N4U5),inactive: -0.012
8,TEAD2 isoform 4 (UniProt Q15562),inactive: -0.346
9,TARDBP (UniProt K7EN94),inactive: 0.319
10,TFEB (UniProt P19484),inactive: 0.018
11,TDRD15 (UniProt B5MCY1),inactive: 0.038
12,TFPI isoform 2 (UniProt P10646),inactive: 0.048
13,TAGLN3 (UniProt Q9UI15),inactive: 0.009
14,TERF1 (UniProt P54274),inactive: -0.115
15,TC2N (UniProt Q8N9U0),inactive: -0.099
16,TEC (UniProt P42680),inactive: 0.114
17,TCF3 (UniProt X6REB3),inactive: -0.031
18,TESMIN (UniProt Q9Y4I5),inactive: 0.083

# Compound: Cc1sc2c(c1C)C(c1ccc(Cl)cc1)=N[C@@H](CC(=O)OC(C)(C)C)c1nnc(C)n1-2
# Assay: as above
# In short: as §1
row,Target,log2 fold change
1,TCEAL8 (UniProt Q8IYN2),inactive: -0.012
2,TEFM (UniProt Q96QE5),inactive: 0.023
3,TCF4 (UniProt P15884),inactive: 0.047
4,TCOF1 isoform 6 (UniProt Q13428),inactive: 0.096
5,TBC1D12 (UniProt O60347),inactive: -0.063
6,TBC1D25 (UniProt Q3MII6),inactive: -0.043
7,TASOR (UniProt Q9UK61),inactive: -0.028
8,TECPR1 isoform 4 (UniProt Q7Z6L1),inactive: -0.217
9,TEAD2 isoform 4 (UniProt Q15562),inactive: 0.072
10,TCF20 (UniProt Q9UGU0),inactive: -0.263
11,TENT2 (UniProt Q6PIY7),inactive: 0.316
12,TDRD15 (UniProt B5MCY1),inactive: -0.124
13,TANC2 isoform 2 (UniProt Q9HCD6),inactive: 0.093
14,TBC1D10A (UniProt Q9BXI6),inactive: 0.074
15,TEDC1 (UniProt Q86SX3),inactive: 0.058
16,"TAF8, A0A0A0MRR3",inactive: -0.04
17,TBCK (UniProt Q8TEA7),inactive: -0.005
18,TBP (UniProt P20226),inactive: -0.151
19,TEAD3 (UniProt Q99594),inactive: -0.002
20,TESMIN (UniProt Q9Y4I5),inactive: -0.301

# Compound: c1ccc([C@@H]2C[C@H]2NC2CCNCC2)cc1
# Assay: as above
# In short: as §1
row,Target,log2 fold change
1,TENM4 (UniProt Q6N022),inactive: 0.137
2,TEFM (UniProt Q96QE5),inactive: 0.133
3,TBXA2R (UniProt P21731),inactive: 0.085
4,TCF4 (UniProt P15884),inactive: 0.091
5,TEDC2 (UniProt Q7L2K0),inactive: 0.039
6,TCOF1 isoform 3 (UniProt Q13428),inactive: 0.036
7,TBC1D12 (UniProt O60347),inactive: 0.069
8,TCTN3 (UniProt Q6NUS6),inactive: -0.006
9,TBCCD1 (UniProt Q9NVR7),inactive: -0.011
10,TBC1D25 (UniProt Q3MII6),inactive: 0.186
11,TECPR1 isoform 4 (UniProt Q7Z6L1),inactive: 0.009
12,TCP11L2 (UniProt Q8N4U5),inactive: 0.028
13,TCF20 (UniProt Q9UGU0),inactive: -0.059
14,TCN1 (UniProt P20061),inactive: -0.045
15,TAZ (UniProt Q16635),inactive: -0.013
16,TANC2 isoform 2 (UniProt Q9HCD6),inactive: 0.081
17,TBC1D10A (UniProt Q9BXI6),inactive: -0.005
18,TAGLN3 (UniProt Q9UI15),inactive: -0.345
19,TGDS (UniProt O95455),inactive: -0.022
20,TBCK (UniProt Q8TEA7),inactive: -0.126
21,TC2N (UniProt Q8N9U0),inactive: 0.088
22,TBP (UniProt P20226),inactive: -0.089
23,TCF3 (UniProt X6REB3),inactive: -0.25
24,TESMIN (UniProt Q9Y4I5),inactive: 0.04
